Assay results: PMC4821246
Results are given in words; binding and its absence hold for the method and conditions named. Binding seen in cells or lysates may run through a third protein. Binding can be weak; no strength is given.

B1: in vitro translated, radiolabelled INCENP N-terminal region (residues 1-261) (domain or fragment, UniProt Q9NQS7 1-261)
chain: MGTTAPGPIHLLELCDQKLMEFLCNMDNKDLVWLEEIQEEAERMFTREFSKEPELMPKTPSQKNRRKKRRISYVQDENRDPIRRRLSRRKSRSSQLSSRRLRSKDSVEKLATVVGENGSVLRRVTRAAAAAAAATMALAAPSSPTPESPTMLTKKPEDNHTQCQLVPVVEIGISERQNAEQHVTQLMSTEPLPRTLSPTPASATAPTSQGIPTSDEESTPKKSKARILESITVSSLMATPQDPKGQGVGTGRSASKLRIAQ
modifications: [35S] methionine-labelled
B2: in vitro translated, radiolabelled Borealin (protein, UniProt Q53HL2 1-280)
chain: MAPRKGSSRVAKTNSLRRRKLASFLKDFDREVEIRIKQIESDRQNLLKEVDNLYNIEILRLPKALREMNWLDYFALGGNKQALEEAATADLDITEINKLTAEAIQTPLKSAKTRKVIQVDEMIVEEEEEEENERKNLQTARVKRCPPSKKRTQSIQGKGKGKRSSRANTVTPAVGRLEVSMVKPTPGLTPRFDSRVFKTPGLRTPAAGERIYNISGNGSPLADSKEIFLTVPVGGGESLRLLASDLQRHSIAQLDPEALGNIKKLSNRLAQICSSIRTHK
modifications: [35S] methionine-labelled
B3: in vitro translated, radiolabelled INCENP central region (residues 262-524) (domain or fragment, UniProt Q9NQS7 262-524)
chain: VSPGPRDSPAFPDSPWRERVLAPILPDNFSTPTGSRTDSQSVRHSPIAPSSPSPQVLAQKYSLVAKQESVVRRASRRLAKKTAEEPAASGRIICHSYLERLLNVEVPQKVGSEQKEPPEEAEPVAAAEPEVPENNGNNSWPHNDTEIANSTPNPKPAASSPETPSAGQQEAKTDQADGPREPPQSARRKRSYKQAVSELDEEQHLEDEELQPPRSKTPSSPCPASKVVRPLRTFLHTVQRNQMLMTPTSAPRSVMKSFIKRNT
modifications: [35S] methionine-labelled

These binders were tested against GST::CIT-K kinase domain fragment (human) (assay: pull-down; GST::CIT-K fragments purified from E. coli on glutathione beads, incubated with in vitro translated [35S]-labelled CPC polypeptides; binding at 150 mM NaCl, washes from 150 mM to 1 M NaCl; autoradiography; only the target purified).

Row | binding | Binder
1 | binds weakly | B1
2 | binds weakly | B2
3 | no binding | B3
